Assay [1] addresses Casz1 (endogenous, developing retina) (mouse (endogenous in P4 retinas)) (UniProt Q9CWL2). The assay is described as follows: co-IP.
In assay [2] the target is Casz1v1-EGFP fusion protein (mouse) (UniProt Q9CWL2). The assay is described as follows: co-IP.

By UniProt entry, the sequences of proteins in these tests, tags left out.
UniProt Q9CWL2: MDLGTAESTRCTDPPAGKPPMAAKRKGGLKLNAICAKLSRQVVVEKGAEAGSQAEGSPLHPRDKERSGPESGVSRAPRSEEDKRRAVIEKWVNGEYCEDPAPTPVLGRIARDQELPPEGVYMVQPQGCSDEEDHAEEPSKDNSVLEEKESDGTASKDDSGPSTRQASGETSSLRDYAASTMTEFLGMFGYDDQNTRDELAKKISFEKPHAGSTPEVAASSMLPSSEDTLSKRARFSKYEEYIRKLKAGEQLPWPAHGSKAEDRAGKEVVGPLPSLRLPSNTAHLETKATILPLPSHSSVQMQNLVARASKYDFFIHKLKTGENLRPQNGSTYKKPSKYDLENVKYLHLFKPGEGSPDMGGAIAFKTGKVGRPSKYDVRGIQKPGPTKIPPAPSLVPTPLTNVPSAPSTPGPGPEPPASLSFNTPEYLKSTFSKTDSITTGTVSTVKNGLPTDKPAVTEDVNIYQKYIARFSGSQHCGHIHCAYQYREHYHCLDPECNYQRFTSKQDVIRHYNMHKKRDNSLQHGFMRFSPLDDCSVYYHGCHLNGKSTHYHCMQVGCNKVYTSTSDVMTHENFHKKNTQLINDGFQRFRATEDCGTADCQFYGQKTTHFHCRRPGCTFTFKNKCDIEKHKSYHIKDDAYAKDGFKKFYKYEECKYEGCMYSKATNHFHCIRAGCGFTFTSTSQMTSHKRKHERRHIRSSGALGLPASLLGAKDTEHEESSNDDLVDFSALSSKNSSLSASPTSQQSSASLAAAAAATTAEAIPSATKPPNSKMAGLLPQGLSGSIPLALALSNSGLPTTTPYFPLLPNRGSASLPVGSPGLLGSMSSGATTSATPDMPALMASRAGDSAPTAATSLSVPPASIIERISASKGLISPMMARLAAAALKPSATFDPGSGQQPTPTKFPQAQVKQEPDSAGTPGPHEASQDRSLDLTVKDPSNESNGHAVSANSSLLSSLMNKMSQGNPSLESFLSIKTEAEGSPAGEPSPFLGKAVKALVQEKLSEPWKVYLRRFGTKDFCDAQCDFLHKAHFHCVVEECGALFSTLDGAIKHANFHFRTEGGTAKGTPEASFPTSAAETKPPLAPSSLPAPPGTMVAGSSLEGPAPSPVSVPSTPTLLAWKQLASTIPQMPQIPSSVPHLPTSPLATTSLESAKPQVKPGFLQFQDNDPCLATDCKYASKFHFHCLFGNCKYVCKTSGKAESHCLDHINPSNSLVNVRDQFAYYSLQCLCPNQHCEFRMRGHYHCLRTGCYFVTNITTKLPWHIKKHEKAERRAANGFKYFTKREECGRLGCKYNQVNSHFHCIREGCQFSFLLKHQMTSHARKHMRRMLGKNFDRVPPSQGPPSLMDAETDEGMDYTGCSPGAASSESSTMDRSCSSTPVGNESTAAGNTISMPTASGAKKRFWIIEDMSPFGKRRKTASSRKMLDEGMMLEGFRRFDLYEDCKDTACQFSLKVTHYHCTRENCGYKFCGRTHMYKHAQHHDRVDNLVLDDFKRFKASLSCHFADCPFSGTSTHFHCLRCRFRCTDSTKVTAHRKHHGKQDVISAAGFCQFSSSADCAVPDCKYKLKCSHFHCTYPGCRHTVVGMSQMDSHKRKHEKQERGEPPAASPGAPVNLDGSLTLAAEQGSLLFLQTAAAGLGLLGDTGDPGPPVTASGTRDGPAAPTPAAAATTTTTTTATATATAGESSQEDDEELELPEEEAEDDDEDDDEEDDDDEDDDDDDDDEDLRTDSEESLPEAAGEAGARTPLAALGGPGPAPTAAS
UniProt Q6PDQ2: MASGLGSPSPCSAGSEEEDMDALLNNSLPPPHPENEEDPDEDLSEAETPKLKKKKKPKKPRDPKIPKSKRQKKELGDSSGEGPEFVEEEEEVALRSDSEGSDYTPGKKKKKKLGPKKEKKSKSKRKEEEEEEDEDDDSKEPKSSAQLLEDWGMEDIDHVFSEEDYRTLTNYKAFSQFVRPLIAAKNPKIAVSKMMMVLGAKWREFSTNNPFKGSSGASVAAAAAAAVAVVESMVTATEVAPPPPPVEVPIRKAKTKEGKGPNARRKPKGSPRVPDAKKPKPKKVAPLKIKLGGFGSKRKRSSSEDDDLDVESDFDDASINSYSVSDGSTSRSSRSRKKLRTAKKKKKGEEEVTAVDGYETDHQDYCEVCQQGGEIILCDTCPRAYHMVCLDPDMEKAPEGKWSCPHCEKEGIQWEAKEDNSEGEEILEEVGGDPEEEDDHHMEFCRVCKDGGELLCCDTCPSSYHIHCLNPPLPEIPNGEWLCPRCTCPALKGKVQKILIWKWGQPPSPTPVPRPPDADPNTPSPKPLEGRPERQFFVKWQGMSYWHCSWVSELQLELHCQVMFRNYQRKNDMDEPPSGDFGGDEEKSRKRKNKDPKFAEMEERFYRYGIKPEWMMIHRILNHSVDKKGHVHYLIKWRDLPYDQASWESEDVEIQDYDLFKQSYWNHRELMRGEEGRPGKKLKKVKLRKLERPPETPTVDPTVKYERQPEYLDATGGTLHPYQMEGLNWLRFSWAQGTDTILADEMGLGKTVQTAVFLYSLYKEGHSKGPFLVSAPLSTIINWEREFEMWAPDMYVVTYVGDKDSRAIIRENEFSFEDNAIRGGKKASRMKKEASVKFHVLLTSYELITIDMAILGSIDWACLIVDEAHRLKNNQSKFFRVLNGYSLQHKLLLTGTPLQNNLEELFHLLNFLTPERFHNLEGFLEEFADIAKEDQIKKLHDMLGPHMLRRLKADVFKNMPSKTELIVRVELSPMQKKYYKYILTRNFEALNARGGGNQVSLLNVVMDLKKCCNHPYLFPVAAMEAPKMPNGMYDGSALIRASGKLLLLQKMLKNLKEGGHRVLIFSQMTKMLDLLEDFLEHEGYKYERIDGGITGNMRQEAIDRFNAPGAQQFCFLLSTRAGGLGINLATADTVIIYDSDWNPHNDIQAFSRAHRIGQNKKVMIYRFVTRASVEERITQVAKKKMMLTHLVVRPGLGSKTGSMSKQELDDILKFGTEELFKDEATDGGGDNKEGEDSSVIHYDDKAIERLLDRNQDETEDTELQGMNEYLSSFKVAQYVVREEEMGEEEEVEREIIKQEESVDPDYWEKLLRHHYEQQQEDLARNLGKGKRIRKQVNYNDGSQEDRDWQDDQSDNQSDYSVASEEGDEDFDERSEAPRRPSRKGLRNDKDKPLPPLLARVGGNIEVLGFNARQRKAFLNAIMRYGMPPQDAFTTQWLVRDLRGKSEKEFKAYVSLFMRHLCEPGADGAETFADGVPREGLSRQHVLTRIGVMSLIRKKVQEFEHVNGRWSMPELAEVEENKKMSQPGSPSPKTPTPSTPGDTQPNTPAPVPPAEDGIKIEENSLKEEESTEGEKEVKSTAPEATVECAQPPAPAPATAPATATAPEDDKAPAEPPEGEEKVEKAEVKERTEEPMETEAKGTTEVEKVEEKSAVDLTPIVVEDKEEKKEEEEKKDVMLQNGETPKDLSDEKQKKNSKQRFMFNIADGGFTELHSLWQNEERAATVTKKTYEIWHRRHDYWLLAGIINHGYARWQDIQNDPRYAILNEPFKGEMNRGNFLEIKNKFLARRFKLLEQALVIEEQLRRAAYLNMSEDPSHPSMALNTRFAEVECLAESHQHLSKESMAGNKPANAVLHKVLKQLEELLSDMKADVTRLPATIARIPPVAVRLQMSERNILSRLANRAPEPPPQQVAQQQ
UniProt Q92769: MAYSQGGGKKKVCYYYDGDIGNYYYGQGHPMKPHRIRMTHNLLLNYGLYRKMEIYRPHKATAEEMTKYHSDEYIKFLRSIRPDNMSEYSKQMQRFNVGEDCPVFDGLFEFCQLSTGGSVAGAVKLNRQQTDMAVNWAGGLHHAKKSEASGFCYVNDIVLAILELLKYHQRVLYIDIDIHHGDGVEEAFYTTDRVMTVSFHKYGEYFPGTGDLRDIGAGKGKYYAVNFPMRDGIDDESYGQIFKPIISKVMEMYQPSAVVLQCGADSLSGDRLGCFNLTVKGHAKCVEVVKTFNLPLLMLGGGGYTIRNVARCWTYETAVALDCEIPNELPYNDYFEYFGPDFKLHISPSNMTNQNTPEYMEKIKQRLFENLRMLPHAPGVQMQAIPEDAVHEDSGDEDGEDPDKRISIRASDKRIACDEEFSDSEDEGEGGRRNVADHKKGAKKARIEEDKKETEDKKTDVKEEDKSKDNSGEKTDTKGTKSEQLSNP
UniProt Q99496: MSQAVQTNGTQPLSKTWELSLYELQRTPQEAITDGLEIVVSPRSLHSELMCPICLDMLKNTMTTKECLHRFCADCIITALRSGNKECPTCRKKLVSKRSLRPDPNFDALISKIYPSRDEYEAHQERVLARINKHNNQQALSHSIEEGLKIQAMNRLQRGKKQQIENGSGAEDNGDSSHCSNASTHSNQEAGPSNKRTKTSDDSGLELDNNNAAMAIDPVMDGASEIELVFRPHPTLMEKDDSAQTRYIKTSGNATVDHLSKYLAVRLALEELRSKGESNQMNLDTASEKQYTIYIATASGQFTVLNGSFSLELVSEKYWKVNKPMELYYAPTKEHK
UniProt P70288: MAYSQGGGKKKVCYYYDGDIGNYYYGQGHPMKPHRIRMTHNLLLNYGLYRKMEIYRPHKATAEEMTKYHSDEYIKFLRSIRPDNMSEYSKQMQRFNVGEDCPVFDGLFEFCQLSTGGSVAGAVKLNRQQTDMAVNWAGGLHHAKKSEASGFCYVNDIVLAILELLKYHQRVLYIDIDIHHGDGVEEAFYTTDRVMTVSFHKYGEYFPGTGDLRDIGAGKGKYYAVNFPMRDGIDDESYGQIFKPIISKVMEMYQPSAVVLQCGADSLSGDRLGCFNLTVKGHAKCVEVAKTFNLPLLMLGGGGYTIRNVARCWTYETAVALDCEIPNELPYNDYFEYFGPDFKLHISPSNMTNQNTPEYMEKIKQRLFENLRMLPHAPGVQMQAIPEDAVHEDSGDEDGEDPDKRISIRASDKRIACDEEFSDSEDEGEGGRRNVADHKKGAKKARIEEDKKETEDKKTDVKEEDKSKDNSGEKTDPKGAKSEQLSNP

Results are given in words; binding and its absence hold for the method and conditions named. In cells and extracts the contact can be indirect. Some entries that bind do so weakly or less than the wild type.

As for Chd4 (from UniProt Q6PDQ2 1-1915), in assay [1], the binding result is recorded as “binds”.
Take “Hdac2 (293Trex) (from UniProt Q92769 1-488) (enzyme)”: in assay [2], the binding entry is on record as “binds”.
Consider “Rnf2 (293Trex) (from UniProt Q99496 1-336)”, for which, in assay [2], the binding entry is “no binding”.
Regarding “Hdac2 (mouse) (from UniProt P70288 1-488) (enzyme)”, the binding result in assay [1] is on record as “binds”.
